# Test results reported in the supplement of paper PMC8728848.
# This is one part of the list.
# Key:
# Test in all cases: glycan array binding signal (z-score within array); higher = stronger binding
# Details in all cases: glycan notation: IUPAC condensed, linker removed
# [1] = biological target: Gal(b1-4)GlcNAc(b1-2)[Gal(b1-4)GlcNAc(b1-6)]Man(a1-6)[GlcNAc(b1-4)][Gal(b1-4)GlcNAc(b1-2)Man(a1-3)]Man(b1-4)GlcNAc(b1-4)GlcNAc
# In short: (§1)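 The binding signal is a Z-score computed within each array. Data were drawn from 3228 arrays in the Consortium for Functional Glycomics database, restricted to those with a known protein sequence. Scores were averaged over arrays of the same protein sequence at different concentrations or buffers, and over linkers, and negative values can be taken as non-binding.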
# [2] = biological target: Gal(b1-4)GlcNAc(b1-2)[Gal(b1-4)GlcNAc(b1-6)]Man(a1-6)[GlcNAc(b1-4)][Gal(b1-4)GlcNAc(b1-2)[Gal(b1-4)GlcNAc(b1-4)]Man(a1-3)]Man(b1-4)GlcNAc(b1-4)[Fuc(a1-6)]GlcNAc
# In short: as §1
# [3] = biological target: Gal(b1-4)GlcNAc(b1-3)Gal(b1-3)GalNAc
# In short: as §1
# [4] = biological target: Gal(b1-4)GlcNAc(b1-3)Gal(b1-3)GlcNAc
# In short: as §1
# [5] = biological target: Gal(b1-4)GlcNAc(b1-3)Gal(b1-4)Glc
# In short: as §1
# [6] = biological target: Gal(b1-4)GlcNAc(b1-3)Gal(b1-4)GlcNAc
# In short: as §1
# [7] = biological target: Gal(b1-4)GlcNAc(b1-3)Gal(b1-4)GlcNAc(b1-2)Man(a1-3)[Gal(b1-4)GlcNAc(b1-3)Gal(b1-4)GlcNAc(b1-2)Man(a1-6)]Man(b1-4)GlcNAc(b1-4)GlcNAc
# In short: as §1
# [8] = biological target: Gal(b1-4)GlcNAc(b1-3)Gal(b1-4)GlcNAc(b1-2)Man(a1-3)[Gal(b1-4)GlcNAc(b1-3)Gal(b1-4)GlcNAc(b1-2)Man(a1-6)]Man(b1-4)GlcNAc(b1-4)[Fuc(a1-6)]GlcNAc
# In short: as §1
# [9] = biological target: Gal(b1-4)GlcNAc(b1-3)Gal(b1-4)GlcNAc(b1-2)[Gal(b1-4)GlcNAc(b1-3)Gal(b1-4)GlcNAc(b1-6)]Man(a1-6)[Gal(b1-4)GlcNAc(b1-3)Gal(b1-4)GlcNAc(b1-2)Man(a1-3)]Man(b1-4)GlcNAc(b1-4)GlcNAc
# In short: as §1
# [10] = biological target: Gal(b1-4)GlcNAc(b1-3)Gal(b1-4)GlcNAc(b1-2)[Gal(b1-4)GlcNAc(b1-3)Gal(b1-4)GlcNAc(b1-6)]Man(a1-6)[Gal(b1-4)GlcNAc(b1-3)Gal(b1-4)GlcNAc(b1-2)Man(a1-3)]Man(b1-4)GlcNAc(b1-4)[Fuc(a1-6)]GlcNAc
# In short: as §1
# [11] = biological target: Gal(b1-4)GlcNAc(b1-3)Gal(b1-4)GlcNAc(b1-3)Gal(b1-4)GlcNAc
# In short: as §1
# [12] = biological target: Gal(b1-4)GlcNAc(b1-3)Gal(b1-4)GlcNAc(b1-3)Gal(b1-4)GlcNAc(b1-2)Man(a1-3)[Gal(b1-4)GlcNAc(b1-3)Gal(b1-4)GlcNAc(b1-3)Gal(b1-4)GlcNAc(b1-2)Man(a1-6)]Man(b1-4)GlcNAc(b1-4)GlcNAc
# In short: as §1
# [13] = biological target: Gal(b1-4)GlcNAc(b1-3)Gal(b1-4)GlcNAc(b1-3)Gal(b1-4)GlcNAc(b1-2)Man(a1-3)[Gal(b1-4)GlcNAc(b1-3)Gal(b1-4)GlcNAc(b1-3)Gal(b1-4)GlcNAc(b1-2)Man(a1-6)]Man(b1-4)GlcNAc(b1-4)[Fuc(a1-6)]GlcNAc
# In short: as §1
# [14] = biological target: Gal(b1-4)GlcNAc(b1-3)Gal(b1-4)GlcNAc(b1-3)Gal(b1-4)GlcNAc(b1-2)[Gal(b1-4)GlcNAc(b1-3)Gal(b1-4)GlcNAc(b1-3)Gal(b1-4)GlcNAc(b1-6)]Man(a1-6)[Gal(b1-4)GlcNAc(b1-3)Gal(b1-4)GlcNAc(b1-3)Gal(b1-4)GlcNAc(b1-2)Man(a1-3)]Man(b1-4)GlcNAc(b1-4)[Fuc(a1-6)]GlcNAc
# In short: as §1
# [15] = biological target: Gal(b1-4)GlcNAc(b1-3)Gal(b1-4)GlcNAc(b1-3)Gal(b1-4)GlcNAc(b1-3)Gal(b1-4)GlcNAc(b1-2)Man(a1-3)[Gal(b1-4)GlcNAc(b1-3)Gal(b1-4)GlcNAc(b1-3)Gal(b1-4)GlcNAc(b1-3)Gal(b1-4)GlcNAc(b1-2)Man(a1-6)]Man(b1-4)GlcNAc(b1-4)GlcNAc
# In short: as §1
# [16] = biological target: Gal(b1-4)GlcNAc(b1-3)Gal(b1-4)GlcNAc(b1-3)Gal(b1-4)GlcNAc(b1-3)Gal(b1-4)GlcNAc(b1-2)Man(a1-3)[Gal(b1-4)GlcNAc(b1-3)Gal(b1-4)GlcNAc(b1-3)Gal(b1-4)GlcNAc(b1-3)Gal(b1-4)GlcNAc(b1-2)Man(a1-6)]Man(b1-4)GlcNAc(b1-4)[Fuc(a1-6)]GlcNAc
# In short: as §1
# [17] = biological target: Gal(b1-4)GlcNAc(b1-3)Gal(b1-4)GlcNAc(b1-3)Gal(b1-4)GlcNAc(b1-3)Gal(b1-4)GlcNAc(b1-2)[Gal(b1-4)GlcNAc(b1-3)Gal(b1-4)GlcNAc(b1-3)Gal(b1-4)GlcNAc(b1-3)Gal(b1-4)GlcNAc(b1-6)]Man(a1-6)[Gal(b1-4)GlcNAc(b1-3)Gal(b1-4)GlcNAc(b1-3)Gal(b1-4)GlcNAc(b1-3)Gal(b1-4)GlcNAc(b1-2)Man(a1-3)]Man(b1-4)GlcNAc(b1-4)[Fuc(a1-6)]GlcNAc
# In short: as §1
# [18] = biological target: Gal(b1-4)GlcNAc(b1-3)Gal(b1-4)GlcNAc(b1-3)Gal(b1-4)GlcNAc(b1-3)Gal(b1-4)GlcNAc(b1-3)Gal(b1-4)GlcNAc(b1-2)Man(a1-3)[Gal(b1-4)GlcNAc(b1-3)Gal(b1-4)GlcNAc(b1-3)Gal(b1-4)GlcNAc(b1-3)Gal(b1-4)GlcNAc(b1-3)Gal(b1-4)GlcNAc(b1-2)Man(a1-6)]Man(b1-4)GlcNAc(b1-4)GlcNAc
# In short: as §1
# [19] = biological target: Gal(b1-4)GlcNAc(b1-3)Gal(b1-4)GlcNAc(b1-3)Gal(b1-4)GlcNAc(b1-3)Gal(b1-4)GlcNAc(b1-3)Gal(b1-4)GlcNAc(b1-2)Man(a1-3)[Gal(b1-4)GlcNAc(b1-3)Gal(b1-4)GlcNAc(b1-3)Gal(b1-4)GlcNAc(b1-3)Gal(b1-4)GlcNAc(b1-3)Gal(b1-4)GlcNAc(b1-2)Man(a1-6)]Man(b1-4)GlcNAc(b1-4)[Fuc(a1-6)]GlcNAc
# In short: as §1
# [20] = biological target: Gal(b1-4)GlcNAc(b1-3)Gal(b1-4)GlcNAc(b1-3)Gal(b1-4)GlcNAc(b1-3)Gal(b1-4)GlcNAc(b1-3)Gal(b1-4)GlcNAc(b1-2)[Gal(b1-4)GlcNAc(b1-3)Gal(b1-4)GlcNAc(b1-3)Gal(b1-4)GlcNAc(b1-3)Gal(b1-4)GlcNAc(b1-3)Gal(b1-4)GlcNAc(b1-6)]Man(a1-6)[Gal(b1-4)GlcNAc(b1-3)Gal(b1-4)GlcNAc(b1-3)Gal(b1-4)GlcNAc(b1-3)Gal(b1-4)GlcNAc(b1-3)Gal(b1-4)GlcNAc(b1-2)Man(a1-3)]Man(b1-4)GlcNAc(b1-4)[Fuc(a1-6)]GlcNAc
# In short: as §1
# [21] = biological target: Gal(b1-4)GlcNAc(b1-3)Gal(b1-4)GlcNAc(b1-3)Gal(b1-4)GlcNAc(b1-3)Gal(b1-4)GlcNAc(b1-3)Gal(b1-4)GlcNAc(b1-3)Gal(b1-4)GlcNAc(b1-2)Man(a1-3)[Gal(b1-4)GlcNAc(b1-3)Gal(b1-4)GlcNAc(b1-3)Gal(b1-4)GlcNAc(b1-3)Gal(b1-4)GlcNAc(b1-3)Gal(b1-4)GlcNAc(b1-3)Gal(b1-4)GlcNAc(b1-2)Man(a1-6)]Man(b1-4)GlcNAc(b1-4)GlcNAc
# In short: as §1
# [22] = biological target: Gal(b1-4)GlcNAc(b1-3)Gal(b1-4)GlcNAc(b1-3)GalNAc
# In short: as §1
# [23] = biological target: Gal(b1-4)GlcNAc(b1-3)Gal(b1-4)GlcNAc(b1-3)[Gal(b1-4)GlcNAc(b1-3)Gal(b1-4)GlcNAc(b1-6)]GalNAc
# In short: as §1
# [24] = biological target: Gal(b1-4)GlcNAc(b1-3)Gal(b1-4)GlcNAc(b1-6)[Gal(b1-3)]GalNAc
# In short: as §1
# [25] = biological target: Gal(b1-4)GlcNAc(b1-3)Gal(b1-4)[Fuc(a1-3)]GlcNAc(b1-3)Gal(b1-4)[Fuc(a1-3)]GlcNAc
# In short: as §1
# [26] = biological target: Gal(b1-4)GlcNAc(b1-3)GalNAc
# In short: as §1
# [27] = biological target: Gal(b1-4)GlcNAc(b1-3)[Fuc(a1-3)GlcNAc(b1-6)]Gal(b1-4)Glc
# In short: as §1
# [28] = biological target: Gal(b1-4)GlcNAc(b1-3)[Gal(b1-4)GlcNAc(b1-6)]Gal(b1-4)GlcNAc
# In short: as §1
# [29] = biological target: Gal(b1-4)GlcNAc(b1-3)[GlcNAc(b1-6)]Gal(b1-4)GlcNAc
# In short: as §1
# [30] = biological target: Gal(b1-4)GlcNAc(b1-6)Gal(b1-4)GlcNAc
# In short: as §1
# [31] = biological target: Gal(b1-4)GlcNAc(b1-6)GalNAc
# In short: as §1
# [32] = biological target: Gal(b1-4)GlcNAc(b1-6)[Gal(b1-3)]GalNAc
# In short: as §1
# [33] = biological target: Gal(b1-4)GlcNAc(b1-6)[Gal(b1-4)GlcNAc(b1-3)]GalNAc
# In short: as §1
# Gal(b1-4)GlcNAc6P = biological target: Gal(b1-4)GlcNAc6P
# In short: as §1
# Gal(b1-6)Gal = biological target: Gal(b1-6)Gal
# In short: as §1
# Gal3S(b1-3)GalNAc = biological target: Gal3S(b1-3)GalNAc
# In short: as §1
# Gal3S(b1-3)GlcNAc = biological target: Gal3S(b1-3)GlcNAc
# In short: as §1
# [34] = biological target: Gal3S(b1-3)[Fuc(a1-4)]GlcNAc
# In short: as §1
binder,measurement,setting,value
PX14375D-bvu-513-34-513 (Bacteroides vulgatus) (protein) TEDTFWKDETDFNLALTSCYTPLKNALNGGYYGTRGVMLRIARADEVDFRNDISDVYTVNRFTNSNTNSLTQGMFYQFYNALYRTNSIMQKLEEKKEQFSTDFQNSVKGECLFIRGFYLFQLAKEFKDAPLRLTASQSPSTFPLAKSSQADIWAQAKEDLKTAASLLPITNKIGKPTQGAAYAALGKIYVYEENWQEAINVLEPLTQNPYTYKLVEDFNWNFDDTHENNAESIFELLIEDVGGTDLWGDGENINSTQSNTRPKEYAAAEVGGWYEANPTQQIMDIFWKEKDKDGNFDYRARCSVAWDYEGCTYYQRPFREVFAQDKWKTYWILKYQNWKTQKDEPAPPKSFINERAIRYADVLLMLAEAYMNKGALDTSIGYINQIRRRANLNDYSGPITKEGVFEDLVHQRAIEFFVEGERFYDLRRWGLLEQTLKTCDDTRYKNYQTGKSDNINKFNYFPIPAKELDTNPLCTPSEGW,glycan array binding signal (z-score),[1],-0.303
same,glycan array binding signal (z-score),[2],-0.989
same,glycan array binding signal (z-score),[3],-0.038
same,glycan array binding signal (z-score),[4],-0.801
same,glycan array binding signal (z-score),[5],-0.017
same,glycan array binding signal (z-score),[6],-0.456
same,glycan array binding signal (z-score),[7],1.87
same,glycan array binding signal (z-score),[8],-0.044
same,glycan array binding signal (z-score),[9],0.712
same,glycan array binding signal (z-score),[10],1.07
same,glycan array binding signal (z-score),[11],0.236
same,glycan array binding signal (z-score),[12],-0.033
same,glycan array binding signal (z-score),[13],0.443
same,glycan array binding signal (z-score),[14],0.978
same,glycan array binding signal (z-score),[15],0.611
same,glycan array binding signal (z-score),[16],0.944
same,glycan array binding signal (z-score),[17],0.525
same,glycan array binding signal (z-score),[18],0.557
same,glycan array binding signal (z-score),[19],0.824
same,glycan array binding signal (z-score),[20],-0.026
same,glycan array binding signal (z-score),[21],-0.639
same,glycan array binding signal (z-score),[22],-0.802
same,glycan array binding signal (z-score),[23],0.258
same,glycan array binding signal (z-score),[24],0.121
same,glycan array binding signal (z-score),[25],-0.114
same,glycan array binding signal (z-score),[26],-0.747
same,glycan array binding signal (z-score),[27],-0.16
same,glycan array binding signal (z-score),[28],-0.128
same,glycan array binding signal (z-score),[29],-0.257
same,glycan array binding signal (z-score),[30],-0.736
same,glycan array binding signal (z-score),[31],-0.033
same,glycan array binding signal (z-score),[32],-0.438
same,glycan array binding signal (z-score),[33],-0.604
same,glycan array binding signal (z-score),Gal(b1-4)GlcNAc6P,0.457
same,glycan array binding signal (z-score),Gal(b1-6)Gal,-0.981
same,glycan array binding signal (z-score),Gal3S(b1-3)GalNAc,-0.283
same,glycan array binding signal (z-score),Gal3S(b1-3)GlcNAc,0.29
same,glycan array binding signal (z-score),[34],0.555
